{
  "source": "paper PMC8764521",
  "experiment_in_all_cases": "co-IP; A549 cells coexpressing HA-NS2 and Flag-BH3, Flag-CCD, Flag-ECD or Flag-RIG-I-C; IP with anti-Flag antibody, immunoblot with anti-HA",
  "key": {"[1]": {"molecular_target": "Flag-tagged C-terminal domain of RIG-I protein"}, "[2]": {"molecular_target": "Flag-tagged coiled-coil domain (CCD) of Beclin1 (human)"}, "[3]": {"molecular_target": "Flag-tagged evolutionary conserved domain (ECD) of Beclin1 (human)"}, "[4]": {"molecular_target": "Flag-tagged BH3 domain of Beclin1 (human)"}},
  "note": "No constants are given. Whether binding was seen depends on the method and setting. In cells and extracts the contact can be indirect. For some of these results: Binding can be weak; no strength is given. Tags and fused reporters may be left off the sequences shown.",
  "data": [
    {"binder": "HA-tagged RSV NS2 protein (protein, UniProt P04543 1-124) MDTTHNDNTPQRLMITDMRPLSLETIITSLTRDIITHKFIYLINHECIVRKLDERQATFTFLVNYEMKLLHKVGSTKYKKYTEYNTKYGTFPMPIFINHDGFLECIGIKPTKHTPIIYKYDLNP", "values": [
      {"measurement": "binding", "setting": "[1]", "result": "no binding"},
      {"measurement": "binding", "setting": "[2]", "result": "binds"},
      {"measurement": "binding", "setting": "[3]", "result": "binds"},
      {"measurement": "binding", "setting": "[4]", "result": "binds"}
    ]}
  ]
}
